From the supplement of paper PMC9135407
Several values for one entry are separate records, joined by “and”; a condition that tells them apart may be missing. Equal values may be shown once. Where a name gives a salt, the structure may show the parent alone. ± gives the standard deviation of the averaged measurements. Some of the results follow. Plates or batches differ in their baseline, so values are only roughly comparable.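 Assay uses culture-activated primary human stellate myofibroblasts; lipid droplet recovery indicates inactivation. Measured: proportion of Hoechst-counted cells over a plate-specific Bodipy cutoff, duplicate wells, DMSO and nortriptyline as per-plate negative and positive controls. A hit scores, control-normalized, above the plate's top-tenth-percentile nortriptyline wells or ranks among its three best wells. Final well concentrations not reported.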

Test system: primary human hepatic stellate cells (donor 1)
Assay: percent Bodipy-positive cells; higher = more lipid droplet accumulation
Conditions: 48 h
Procedure: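 Primary lipid accumulation screen in primary human hepatic stellate cell myofibroblasts (donor 1, passage 8) in 384-well plates. 100 nL of library compound was pin-transferred into 30 µL medium in duplicate, and cells were treated for 48 h. The 'Scaled' score combines distance from plate baseline, toxicity and reproducibility penalties, and is normalised to nortriptyline (positive) and DMSO (negative) controls on each plate. A hit is defined as scaled >0.85 or among the top 3 wells per plate.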

[1] = library stock concentration: 10 mM
[2] = library stock concentration: 3.33 mM
[3] = library stock concentration: 1 mM
[4] = library stock concentration: 6.7 mM

CN(C)CCOC(c1ccccc1)c1ccccc1
percent Bodipy-positive cells [1]: 47.2 ± 5.1%

Cc1cc(=O)oc2c(C=O)c(O)ccc12
percent Bodipy-positive cells [2]: 28.2 ± 3.2% | percent Bodipy-positive cells [1]: 13.9 ± 0.85%

NC(=O)c1cc[n+](CC2=C(C(=O)[O-])N3C(=O)[C@@H](NC(=O)[C@@H](c4ccccc4)S(=O)(=O)O)[C@H]3SC2)cc1 [Cefsulodin sodium salt]
percent Bodipy-positive cells: 8.6 ± 0.66%

CC(C)=CC[C@@H](O)C1=CC(=O)c2c(O)ccc(O)c2C1=O [Shikonin]
percent Bodipy-positive cells (library stock concentration: 6.9 mM): 76.5 ± 9.9% | percent Bodipy-positive cells (library stock concentration: 17.3 mM): 4.79 ± 1.5%

CCCCNC(=O)NS(=O)(=O)c1ccc(CO)cc1 [4-hydroxy Tolbutamide]
percent Bodipy-positive cells [3]: 12.1 ± 1.6%

CC(O)C(O)[C@H]1CNc2nc(N)[nH]c(=O)c2N1 (stereo partly drawn) [(6R)-5,6,7,8-Tetrahydro-L-biopterin hydrochloride]
percent Bodipy-positive cells [1]: 28 ± 4.8%

NC(=O)C1=CN(C2OC(COP(=O)(O)OP(=O)(O)OC[C@H]3O[C@@H](n4cnc5c(N)ncnc54)C(OP(=O)(O)O)[C@H]3O)C(O)C2O)C=CC1 (stereo not given in full) [NADPH tetrasodium]
percent Bodipy-positive cells [1]: 35.3 ± 16%

CCCCCC#CCC#CCC#CCC#CCCCC(=O)O [5,8,11,14-Eicosatetraynoic acid]
percent Bodipy-positive cells [3]: 10.5 ± 7.5%

NC[C@@H]1CC[C@@H](N)[C@@H](O[C@H]2[C@H](O)[C@@H](O[C@H]3O[C@H](CO)[C@@H](O)[C@H](N)[C@H]3O)[C@H](N)C[C@@H]2N)O1 [Dibekacin]
percent Bodipy-positive cells [1]: 36.5 ± 1.6%

C[C@]12CC[C@H](O)CC1=CC[C@@H]1[C@@H]2CC[C@]2(C)C(n3cnc4ccccc43)=CC[C@@H]12 [Galeterone]
percent Bodipy-positive cells [2]: 20.4 ± 3%

CC1=C(/C=C/C(C)=C/C=C/C(C)=C/C(=O)O)C(C)(C)CCC1 [Tretinoin]
percent Bodipy-positive cells [2]: 7.84 ± 2.7% | percent Bodipy-positive cells [1]: 19 ± 7.3%

CC1=C(/C=C/C(C)=C/C=C/C(C)=C/C(=O)O)C(C)(C)CCC1 [All trans retinoic acid]
percent Bodipy-positive cells [3]: 16.3 ± 3.5%

CC1=C(/C=C/C(C)=C/C=C/C(C)=C/C(=O)O)C(C)(C)CCC1 [Retinoic acid]
percent Bodipy-positive cells: 25.5 ± 2.5% | percent Bodipy-positive cells [4]: 7.25 ± 1.2% | percent Bodipy-positive cells [1]: 18.2% and 5.85%

CC1=C(/C=C/C(C)=C/C=C/C(C)=C/C(=O)O)C(C)(C)CCC1 [Tretinon]
percent Bodipy-positive cells [4]: 15.6 ± 0.65% | percent Bodipy-positive cells [1]: 28.7 ± 10%

CC1=C(/C=C/C(C)=C/C=C/C(C)=C/C(=O)O)C(C)(C)CCC1 [trans-Retinoic acid]
percent Bodipy-positive cells [1]: 41.5 ± 15%

O=C(Nc1nc2cccc(-c3ccc(CN4CCS(=O)(=O)CC4)cc3)n2n1)C1CC1 [Filgotinib (GLPG0634)]
percent Bodipy-positive cells [2]: 19.2 ± 5.8% | percent Bodipy-positive cells [1]: 68.4 ± 4.7%

O=C(Nc1nc2cccc(-c3ccc(CN4CCS(=O)(=O)CC4)cc3)n2n1)C1CC1 [Filgotinib]
percent Bodipy-positive cells (library stock concentration: 80 uM): 8.13 ± 1.9% | percent Bodipy-positive cells (library stock concentration: 400 uM): 6.79 ± 4% | percent Bodipy-positive cells (library stock concentration: 2 mM): 5.19 ± 1.6% | percent Bodipy-positive cells [1]: 28.5 ± 3%

COc1ccc2ccc(=O)oc2c1CC=C(C)C [Osthole]
percent Bodipy-positive cells [2]: 11 ± 7.5% | percent Bodipy-positive cells [1]: 14.6 ± 2.1%

N=C(N)NS(=O)(=O)c1ccc(N)cc1 [Sulfaguanidine]
percent Bodipy-positive cells: 29.8 ± 3.9% | percent Bodipy-positive cells [2]: 16.5 ± 2.3% | percent Bodipy-positive cells (library stock concentration: 9.3 mM): 15.9 ± 4% | percent Bodipy-positive cells [1]: 35.5% and 36.3%

CC(=O)Oc1ccccc1C(=O)O [Acetylsalicylic acid]
percent Bodipy-positive cells [1]: 27.4 ± 13%

CC(=O)Oc1ccccc1C(=O)O [Aspirin]
percent Bodipy-positive cells [2]: 7.8 ± 2% | percent Bodipy-positive cells [1]: 13% and 10.4%

CCCCCCOC(=O)[C@]1(O)C[C@@H]2O[C@@]1(C)n1c3ccccc3c3c4c(c5c6ccccc6n2c5c31)C(=O)NC4
percent Bodipy-positive cells (library stock concentration: 900 uM): 17.87 ± 0.16% | percent Bodipy-positive cells [2]: 9.8 ± 1.7%

O=C(O)[C@H]1NCCC[C@H]1C(=O)O
percent Bodipy-positive cells [1]: 11.4 ± 2.3%

CCCCCCCC/C=C\CCCCCCCC(=O)NCC(=O)O [N-Oleoyl Glycine]
percent Bodipy-positive cells [3]: 14 ± 3.3%

CC1=C(/C=C/C(C)=C/C=C/C(C)=C/C=C/C=C(C)/C=C/C=C(C)/C=C/C2=C(C)C(=O)[C@@H](O)CC2(C)C)C(C)(C)C[C@H](O)C1=O [Astaxanthin]
percent Bodipy-positive cells [1]: 46 ± 9%

CNS(=O)(=O)CCc1ccc2[nH]cc(C3CCN(C)CC3)c2c1 [Naratriptan]
percent Bodipy-positive cells [2]: 7.43 ± 1.6% | percent Bodipy-positive cells [1]: 15.4 ± 0.44%

CNS(=O)(=O)CCc1ccc2[nH]cc(C3CCN(C)CC3)c2c1 [Naratriptan hydrochloride]
percent Bodipy-positive cells [1]: 33.1 ± 3.3%

CCCCNC(=O)[C@@H]1Cc2ccccc2N1C(=O)[C@@H](N)CC [Butabindide oxalate]
percent Bodipy-positive cells [1]: 6.05 ± 0.63%

C[C@H](O)[C@H](O)[C@@H](O)[C@@H](O)C=O [L-(+)-Rhamnose Monohydrate]
percent Bodipy-positive cells [2]: 9.569 ± 0.014% | percent Bodipy-positive cells [1]: 24.3 ± 15%

Cc1ncc(CO)c(CO)c1O [Pyridoxine hydrochloride]
percent Bodipy-positive cells: 31.6 ± 2.5%

Cc1ncc(CO)c(CO)c1O [Pyridoxine]
percent Bodipy-positive cells (library stock concentration: 11.8 mM): 16.2 ± 0.56%

Cc1ncc(CO)c(CO)c1O [Pyridoxine HCl]
percent Bodipy-positive cells [2]: 7.63 ± 1.2% | percent Bodipy-positive cells [1]: 9.52 ± 3.9%

O=C(O)c1ccc(-c2c[nH]c3ncc(-c4ccccc4)cc23)cc1C1CCCC1
percent Bodipy-positive cells [2]: 24.5 ± 3.7% | percent Bodipy-positive cells [1]: 29.3% and 8.5%

CN1CCc2cc(Cl)c(O)cc2[C@@H](c2ccccc2)C1
percent Bodipy-positive cells (library stock concentration: 9.9 mM): 20.8 ± 7.6%

Nc1ccc(N2C(=O)c3ccccc3C2=O)c(Cl)c1 [N-(4-Amino-2-chlorophenyl)phthalimide]
percent Bodipy-positive cells [1]: 52.3 ± 8.9%

CC1(C)[C@H](C(=O)O)N2C(=O)C[C@H]2S1(=O)=O [Sulbactam sodium]
percent Bodipy-positive cells [2]: 8.34 ± 2.5% | percent Bodipy-positive cells [1]: 18.9 ± 5.4%

CC1(C)[C@H](C(=O)O)N2C(=O)C[C@H]2S1(=O)=O [Sulbactam]
percent Bodipy-positive cells [2]: 7.25 ± 1.9% | percent Bodipy-positive cells (library stock concentration: 8.6 mM): 10.1 ± 1.1% | percent Bodipy-positive cells [1]: 25.8 ± 24%
